# Source: article PMC4038590 (PLoS ONE, 2014)
# The chains behind the UniProt entries cited, without tags or fusion partners. Residues count along the entry.
# UniProt P06492, residues 427-485: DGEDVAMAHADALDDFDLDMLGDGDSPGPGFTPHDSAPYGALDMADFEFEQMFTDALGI
# Results are given in words; binding and its absence hold for the method and conditions named. Some binding calls cover weakened binding; strength is not graded here.
# Biological target: GST-VP16-TAD (Herpes simplex virus VP16 transcription activation domain, both subdomains, residues 427-485) (Herpes simplex virus type 1) (UniProt P06492)
# Experiment: pull-down; both purified
binder,measurement,value
"Arabidopsis thaliana Med25 ACtivator Interaction Domain (aMed25-ACID), Med25_(551-680) (domain or fragment, UniProt Q7XYY2 551-680, looked up, source: 15N-labelled in M9 medium for NMR) TSQSKYVKVWEGNLSGQRQGQPVLITRLEGYRSASASDSLAANWPPTMQIVRLISQDHMNNKQYVGKADFLVFRAMSQHGFLGQLQDKKLCAVIQLPSQTLLLSVSDKACRLIGMLFPGDMVVFKPQIPN",binding,binds
